Earlier results as cited in patent US8673943B2, “Fluorinated derivatives of deferiprone” (Apotex Technologies Inc., priority 2007, dated 2014).
Some of these results come from one statement about several compounds together.

Conditions: prior-art / published chelators; 1×10^−5 M chelator and 1×10^−6 M Fe(III); cited from earlier work

Which “pFe(III) / pFe^3+” value does the source give for CC(=O)N(O)CCCCCNC(=O)CCC(=O)N(O)CCCCCNC(=O)CCC(=O)N(O)CCCCCN [desferral] here?
The value was “above 19”.
